Measurements reported in the supplement of paper PMC4604168 (melanoma cell lines).
Some of the results follow. Single values are uncertain, as repeats are few or missing.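 The apoptosis fraction was the count of cleaved-PARP antibody-stained nuclei relative to all DNA-stained nuclei, imaged in 1,536-well plates. Screening doses were set so most cells survived, and baseline and induced cleaved-PARP levels vary greatly across cell lines.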

How the values were obtained:
Assay in all cases: cleaved PARP positive nuclei fraction relative to DMSO control; melanoma cells; higher = more apoptosis
Conditions in all cases: library dose: low library concentration; 72 h
[1] = test system: 501Mel
[2] = test system: A101D
[3] = test system: A2058
[4] = test system: A375
[5] = test system: C32
[6] = test system: CBRC008 (line from a melanoma biopsy)
[7] = test system: CBRC013 (line from a melanoma biopsy)
[8] = test system: CBRC014 (line from a melanoma biopsy)
[9] = test system: CBRC016 (line from a melanoma biopsy)
[10] = test system: CBRC017 (line from a melanoma biopsy)
[11] = test system: COLO792
[12] = test system: COLO800
[13] = test system: COLO829
[14] = test system: G361
[15] = test system: IPC-298
[16] = test system: IST-MEL1
[17] = test system: LB2518-MEL
[18] = test system: LOXIMVI
[19] = test system: MEL-HO

| Compound | cleaved PARP positive nuclei fraction [1] | cleaved PARP positive nuclei fraction [2] | cleaved PARP positive nuclei fraction [3] | cleaved PARP positive nuclei fraction [4] | cleaved PARP positive nuclei fraction [5] | cleaved PARP positive nuclei fraction [6] | cleaved PARP positive nuclei fraction [7] | cleaved PARP positive nuclei fraction [8] | cleaved PARP positive nuclei fraction [9] | cleaved PARP positive nuclei fraction [10] | cleaved PARP positive nuclei fraction [11] | cleaved PARP positive nuclei fraction [12] | cleaved PARP positive nuclei fraction [13] | cleaved PARP positive nuclei fraction [14] | cleaved PARP positive nuclei fraction [15] | cleaved PARP positive nuclei fraction [16] | cleaved PARP positive nuclei fraction [17] | cleaved PARP positive nuclei fraction [18] | cleaved PARP positive nuclei fraction [19] |
| --- | --- | --- | --- | --- | --- | --- | --- | --- | --- | --- | --- | --- | --- | --- | --- | --- | --- | --- | --- |
| Nc1ncn([C@H]2C[C@H](O)[C@@H](CO)O2)c(=O)n1 [decitabine] + C[C@@H]1CCN(C(=O)CC#N)C[C@@H]1N(C)c1ncnc2[nH]ccc12 [CP690550] (first compound 0.1 µM, partner dose 1 µM) | 91.6% | 99.7% | 150% | 155% | 119% | 278% | 103% | 97.6% | 125% | 115% | 116% | 99.6% | 283% | 83.3% | 136% | 405% | 174% | 61.7% | 304% |
| CC(C)C[C@H](NC(=O)[C@H](Cc1ccccc1)NC(=O)c1cnccn1)B(O)O [Bortezomib] + CO[C@@H]1[C@H](N(C)C(=O)c2ccccc2)C[C@H]2O[C@]1(C)n1c3ccccc3c3c4c(c5c6ccccc6n2c5c31)C(=O)NC4 [Midostaurin] (first compound 0.001 µM, partner dose 0.08 µM) | 230% | 118% | 156% | 48.9% | 65.9% | 399% | 139% | 258% | 885% | 432% | 68.2% | 94.5% | 380% | 1090% | 111% | 312% | 1030% | 156% | 79.7% |
| CS(=O)(=O)CCNCc1ccc(-c2ccc3ncnc(Nc4ccc(OCc5cccc(F)c5)c(Cl)c4)c3c2)o1 [lapatinib] + CC1(C)NC(=O)N(c2ccc([N+](=O)[O-])c(C(F)(F)F)c2)C1=O [nilutamide] (first compound 0.8 µM, partner dose 1 µM) | 161% | 83.8% | 163% | 49.7% | 106% | 106% | 85.3% | 87% | 84.7% | 161% | 90.5% | 92.3% | 30.8% | 114% | 82.7% | 154% | 75.1% | 50% | 99.3% |
| Cn1c(=O)n(-c2ccc(C(C)(C)C#N)cc2)c2c3cc(-c4cnc5ccccc5c4)ccc3ncc21 + Cc1ccc(NC(=O)c2cccc(N(C)C)c2)cc1NC(=O)c1ccc(O)cc1 [ZM336372] (first compound 0.004 µM, partner dose 2 µM) | 79.9% | 154% | 100% | 117% | 124% | 22.9% | 59.8% | 174% | 136% | 54.3% | 106% | 72.5% | 76.2% | 299% | 233% | 108% | 106% | 58.9% | 166% |
| Cc1cc(Nc2cc(N3CCN(C)CC3)nc(/C=C/c3ccccc3)n2)n[nH]1 + Cn1cncc1[C@@](N)(c1ccc(Cl)cc1)c1ccc2c(c1)c(-c1cccc(Cl)c1)cc(=O)n2C [tipifarnib] (first compound 0.04 µM, partner dose 0.01 µM) | 272% | 102% | 207% | 157% | 111% | 108% | 181% | 89.7% | 45.2% | 91.1% | 179% | 52.9% | 133% | 101% | 48.9% | 52.4% | 121% | 91.3% | 62.7% |
| C[C@@H](Oc1cc(-c2cnn(C3CCNCC3)c2)cnc1N)c1c(Cl)ccc(F)c1Cl [Crizotinib] + C[C@@H]1CCN(C(=O)CC#N)C[C@@H]1N(C)c1ncnc2[nH]ccc12 [CP690550] (first compound 0.2 µM, partner dose 1 µM) | 52.8% | 79.9% | 52.3% | 244% | 52.5% | 42.6% | 112% | 69.3% | 26.8% | 91% | 69.5% | 100% | 52.2% | 170% | 172% | 96.5% | 94.6% | 24.1% | 249% |
| CN1CCN(c2ccc3nc(-c4c(N)c5c(F)cccc5[nH]c4=O)[nH]c3c2)CC1 [Dovitinib] + NC(=O)Nc1cc(-c2cccc(F)c2)sc1C(=O)N[C@H]1CCCNC1 [AZD7762] (first compound 0.1 µM, partner dose 0.02 µM) | 82.5% | 111% | 59.8% | 193% | 153% | 189% | 124% | 85.1% | 84.3% | 111% | 67.9% | 146% | 96.1% | 82.4% | 88% | 123% | 68.2% | 95.5% | 93.7% |
| CN1CCN(c2ccc3nc(-c4c(N)c5c(F)cccc5[nH]c4=O)[nH]c3c2)CC1 [Dovitinib] + CC(C)(C)c1cnc(CSc2cnc(NC(=O)C3CCNCC3)s2)o1 [SNS-032] (first compound 0.1 µM, partner dose 0.01 µM) | 81.2% | 44.8% | 174% | 150% | 60.7% | 159% | 176% | 90.8% | 135% | 111% | 91.1% | 65.1% | 129% | 53.8% | 90.3% | 47% | 48.7% | 121% | 455% |
| CC(C)C[C@H](NC(=O)[C@H](Cc1ccccc1)NC(=O)c1cnccn1)B(O)O [Bortezomib] + COc1cc(Nc2ncc(F)c(Nc3ccc4c(n3)NC(=O)C(C)(C)O4)n2)cc(OC)c1OC [Tamatinib] (first compound 0.001 µM, partner dose 0.4 µM) | 826% | 247% | 74.6% | 341% | 86.1% | 1340% | 85.8% | 434% | 388% | 253% | 169% | 87.7% | 91.7% | 2160% | 83.1% | 343% | 383% | 112% | 70.8% |
| Nc1nc(F)nc2c1ncn2[C@@H]1O[C@H](CO)[C@@H](O)[C@@H]1O [fludarabine] + CO[C@@H]1[C@H](N(C)C(=O)c2ccccc2)C[C@H]2O[C@]1(C)n1c3ccccc3c3c4c(c5c6ccccc6n2c5c31)C(=O)NC4 [Midostaurin] (first compound 0.2 µM, partner dose 0.08 µM) | 2400% | 96.6% | 43.5% | 6200% | 88.6% | 82.3% | 620% | 96.2% | 152% | 102% | 136% | 83.8% | 147% | 105% | 44.5% | 118% | 39.3% | 266% | 317% |
| CNC(=O)c1cc(Oc2ccc(NC(=O)Nc3ccc(Cl)c(C(F)(F)F)c3)cc2)ccn1 [sorafenib] + NCC(=O)Nc1ccc(-n2nc(C(F)(F)F)cc2-c2ccc3c(ccc4ccccc43)c2)cc1 [OSU03012] (first compound 0.4 µM, partner dose 1 µM) | 219% | 54% | 303% | 6090% | 90.6% | 33% | 76.8% | 92.4% | 76.5% | 91.2% | 100% | 121% | 106% | 138% | 57.4% | 52.8% | 85.9% | 96.7% | 65.7% |
| CC(C)C[C@H](NC(=O)[C@H](Cc1ccccc1)NC(=O)c1cnccn1)B(O)O [Bortezomib] + C=CCn1c(=O)c2cnc(Nc3ccc(N4CCN(C)CC4)cc3)nc2n1-c1cccc(C(C)(C)O)n1 [MK1775] (first compound 0.001 µM, partner dose 0.02 µM) | 242% | 814% | 72.2% | 150% | 167% | 352% | 83.7% | 139% | 303% | 361% | 68.2% | 116% | 114% | 1910% | 106% | 35.9% | 284% | 114% | 139% |
| CS(=O)(=O)CCNCc1ccc(-c2ccc3ncnc(Nc4ccc(OCc5cccc(F)c5)c(Cl)c4)c3c2)o1 [lapatinib] + O=C(CCCCCCC(=O)Nc1ccccc1)NO [vorinostat] (first compound 0.8 µM, partner dose 0.08 µM) | 124% | 169% | 152% | 71.7% | 232% | 410% | 65.1% | 84.8% | 89% | 90.9% | 155% | 59.3% | 70.4% | 157% | 43.4% | 108% | 366% | 67.1% | 140% |
| CNC(=O)c1cc(Oc2ccc(NC(=O)Nc3ccc(Cl)c(C(F)(F)F)c3)cc2)ccn1 [sorafenib] + COc1cc(Nc2ncc(F)c(Nc3ccc4c(n3)NC(=O)C(C)(C)O4)n2)cc(OC)c1OC [Tamatinib] (first compound 0.4 µM, partner dose 0.4 µM) | 129% | 97% | 182% | 89.8% | 150% | 135% | 115% | 84.1% | 85.6% | 90.2% | 132% | 45.4% | 68.6% | 77% | 118% | 88.5% | 87.7% | 82.8% | 112% |
| CS(=O)(=O)CCNCc1ccc(-c2ccc3ncnc(Nc4ccc(OCc5cccc(F)c5)c(Cl)c4)c3c2)o1 [lapatinib] + OCCn1cc(-c2cnc3nnn(Cc4ccc5ncccc5c4)c3n2)cn1 [PF04217903] (first compound 0.8 µM, partner dose 1 µM) | 81.9% | 41.9% | 46% | 134% | 36.5% | 280% | 105% | 68.1% | 68.3% | 79.3% | 87.5% | 34.7% | 83.3% | 158% | 96.2% | 417% | 180% | 83.8% | 139% |
| CNC(=O)c1cc(Oc2ccc(NC(=O)Nc3ccc(Cl)c(C(F)(F)F)c3)cc2)ccn1 [sorafenib] + CN(NC(=O)CC(=O)NN(C)C(=S)c1ccccc1)C(=S)c1ccccc1 [STA4783] (first compound 0.4 µM, partner dose 0.006 µM) | 145% | 47.4% | 138% | 660% | 43.6% | 3340% | 132% | 331% | 242% | 608% | 116% | 155% | 185% | 141% | 141% | 176% | 93.7% | 223% | 33.9% |
| CO[C@H]1C[C@@H]2CC[C@@H](C)[C@@](O)(O2)C(=O)C(=O)N2CCCC[C@H]2C(=O)O[C@H]([C@H](C)C[C@@H]2CC[C@@H](OCCO)[C@H](OC)C2)CC(=O)[C@H](C)/C=C(\C)[C@@H](O)[C@@H](OC)C(=O)[C@H](C)C[C@H](C)/C=C/C=C/C=C/1C [everolimus] + COc1cc(Nc2ncc(F)c(Nc3ccc4c(n3)NC(=O)C(C)(C)O4)n2)cc(OC)c1OC [Tamatinib] (first compound 0.02 µM, partner dose 0.4 µM) | 580% | 185% | 367% | 290% | 154% | 739% | 120% | 91.8% | 71.3% | 116% | 239% | 199% | 234% | 88.8% | 160% | 186% | 276% | 93.4% | 198% |

Single records (already shown). Order of values: cleaved PARP positive nuclei fraction [1] | cleaved PARP positive nuclei fraction [2] | cleaved PARP positive nuclei fraction [3] | cleaved PARP positive nuclei fraction [4] | cleaved PARP positive nuclei fraction [5] | cleaved PARP positive nuclei fraction [6] | cleaved PARP positive nuclei fraction [7] | cleaved PARP positive nuclei fraction [8] | cleaved PARP positive nuclei fraction [9] | cleaved PARP positive nuclei fraction [10] | cleaved PARP positive nuclei fraction [11] | cleaved PARP positive nuclei fraction [12] | cleaved PARP positive nuclei fraction [13] | cleaved PARP positive nuclei fraction [14] | cleaved PARP positive nuclei fraction [15] | cleaved PARP positive nuclei fraction [16] | cleaved PARP positive nuclei fraction [17] | cleaved PARP positive nuclei fraction [18] | cleaved PARP positive nuclei fraction [19]
CNC(=O)c1cc(Oc2ccc(NC(=O)Nc3ccc(Cl)c(C(F)(F)F)c3)cc2)ccn1 [sorafenib] + COc1cc(Nc2ncc(F)c(Nc3ccc4c(n3)NC(=O)C(C)(C)O4)n2)cc(OC)c1OC [Tamatinib] (first compound 0.4 µM, partner dose 0.4 µM) as listed: 129% | 97% | 182% | 89.8% | 150% | 135% | 115% | 84.1% | 85.6% | 90.2% | 132% | 45.4% | 68.6% | 77% | 118% | 88.5% | 87.7% | 82.8% | 112%
Cn1c(=O)n(-c2ccc(C(C)(C)C#N)cc2)c2c3cc(-c4cnc5ccccc5c4)ccc3ncc21 + Cc1ccc(NC(=O)c2cccc(N(C)C)c2)cc1NC(=O)c1ccc(O)cc1 [ZM336372] (first compound 0.004 µM, partner dose 2 µM) as listed: 79.9% | 154% | 100% | 117% | 124% | 22.9% | 59.8% | 174% | 136% | 54.3% | 106% | 72.5% | 76.2% | 299% | 233% | 108% | 106% | 58.9% | 166%
